Reference: patent US5229116A, “Administration of pharmaceutical agents” (priority 1989, dated 1993)

Assay: In vivo pharmacokinetic studies of dihydropyridines given orally with water, grapefruit juice or orange juice (plasma concentration, GC analysis)
Parameters: species or system hypertensive patients)
Conditions: human, po, 10 mg, nifedipine 10 mg capsules, healthy subjects, mean; for AUC(0-inf): zero to infinity
Protocol: Hypertensive patients and healthy volunteers were given commercially available formulations of dihydropyridines in the morning after an overnight fast. The tablets were taken either with water, orange juice, or, as a source of flavonoids, 200 ml grapefruit juice. This contains about 150 mg of flavonoids, either as aglycones or glycosides.
The protocols for the five studies are shown on Table 2.
Blood samples for the analysis of the dihydropyridine and the first metabolite were drawn before and at frequent intervals after dose via an indwelling antecubital cannula. Samples were centrifuged and the plasma frozen (-20° C.) until analysis.
The maximum plasma concentration, Cmax, and the corresponding time to reach peak concentration, tmax, were recorded from the individual plasma concentration time curves of the dihydropyridine and its first metabolite. The area from zero to infinity was calculated adding the residual area to the area from zero to last determinable plasma concentration value by using the slope of the log plasma concentration time curve in the 3 to 8 hour interval after dose.

Which Cmax (n = 6, grapefruit juice) does the source give for `COC(=O)C1=C(C)NC(C)=C(C(=O)OC)C1c1ccccc1[N+](=O)[O-]` [Nifedipine] here?
The Cmax was 250 ± 42 nM.

And the Tmax (n = 6, grapefruit juice)?
The Tmax was 1.2 ± 0.1 h.

And the AUC(0-inf) (n = 6, grapefruit juice)?
Its AUC(0-inf) is 0.627 ± 0.152 µM·h.

What about the Cmax (n = 6, water) of the same compound?
Its Cmax is 222 ± 54 nM.

What about the Tmax (n = 6, water) of the same compound?
The Tmax was 0.8 ± 0.1 h.

And the AUC(0-inf) (n = 6, water)?
The AUC(0-inf) was 0.464 ± 0.092 µM·h.
